Experimental findings from paper PMC6662305, “The basic helix‐loop‐helix transcription factor, OsPIL15, regulates grain size via directly targeting a purine permease gene OsPUP7 in rice” are described below.

These are yes or no findings as the source states them, for the method shown. Some binding calls cover weakened binding; strength is not graded here.

The experiment deals with T1, OsPIL15 (rice (Oryza sativa L.)) (UniProt Q0JNI9).
T1 sequence: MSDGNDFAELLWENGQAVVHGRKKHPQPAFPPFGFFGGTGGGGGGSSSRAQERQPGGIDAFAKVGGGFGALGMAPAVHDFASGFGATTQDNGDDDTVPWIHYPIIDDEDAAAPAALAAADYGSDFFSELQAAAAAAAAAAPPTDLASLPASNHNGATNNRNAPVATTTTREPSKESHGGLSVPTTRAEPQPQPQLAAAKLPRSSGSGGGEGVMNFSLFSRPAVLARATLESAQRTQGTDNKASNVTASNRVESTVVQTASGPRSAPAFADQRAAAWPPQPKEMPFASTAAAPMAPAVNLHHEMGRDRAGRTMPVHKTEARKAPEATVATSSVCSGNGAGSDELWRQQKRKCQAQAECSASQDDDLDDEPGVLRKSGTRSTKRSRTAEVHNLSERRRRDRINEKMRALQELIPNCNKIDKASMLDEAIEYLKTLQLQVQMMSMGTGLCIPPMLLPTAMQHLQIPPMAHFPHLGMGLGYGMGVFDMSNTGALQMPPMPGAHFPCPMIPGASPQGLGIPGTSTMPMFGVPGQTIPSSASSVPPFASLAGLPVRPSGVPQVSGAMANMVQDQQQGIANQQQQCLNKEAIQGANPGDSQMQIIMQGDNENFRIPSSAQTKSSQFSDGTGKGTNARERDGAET
Kind of experiment: two-hybrid; split-ubiquitin yeast two-hybrid (DUALhunter kit); OsPIL15 in pDHB1 (bait), OsPGL1 or OsPGL2 in pPR3-N (prey); yeast NMY51; growth on SD-LTH and SD-LTHA, serial dilutions spotted on plates with 5 mM 3-AT.

B1: OsPGL2 (protein, UniProt Q6YUX0 1-88)
chain: MSSRRSSRGSISEEEINELISKLQSLLPNSRRRGSSQASTTKLLKETCNYIKSLHREVDDLSDRLSDLMATMDHNSPGAEIIRSILRS
As to B1, the binding entry is “no binding”.

B2: OsPGL1 (protein, UniProt Q0DUR2 1-92)
chain: MSSRRSRSRQSGSSRITDEQISDLVSKLQDLLPEARLRSNDRVPSSRVLQETCNYIRSLHQEVDDLSERLSELLATSDMSSAQAAIIRSLLM
For the molecule B2, the binding result is given as “binds weakly”.
